Whole data set: some 33,000 sequences, median “E-score (-0.5 to 0.5)” near -8e-05, cut for the highest 2% near 0.23. Some of the results follow.
Target: T1, Nrg2 (UniProt P38082)
T1 sequence: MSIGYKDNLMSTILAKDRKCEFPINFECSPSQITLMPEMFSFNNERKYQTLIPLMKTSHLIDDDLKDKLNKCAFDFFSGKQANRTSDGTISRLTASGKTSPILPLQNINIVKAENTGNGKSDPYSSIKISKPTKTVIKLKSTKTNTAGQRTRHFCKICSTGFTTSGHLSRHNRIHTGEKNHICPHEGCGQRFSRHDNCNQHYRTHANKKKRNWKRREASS
Assay: PBM E-score (8-mer binding enrichment) (E-score (-0.5 to 0.5)); higher = stronger / more preferred TF binding
Conditions: protein concentration: 100 nM; construct: GST-full length
Procedure, shortened: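 PURExpress in vitro transcription/translation supplied GST-tagged yeast transcription factors, either full-length or DNA-binding domain. Applied at about 100-200 nM to universal all-10-mer Agilent arrays double-stranded by primer extension, the bound protein was detected with fluorescent anti-GST. E-scores, modified Wilcoxon-Mann-Whitney statistics, were given by the Universal PBM Analysis Suite to ungapped eight-base words pooled with their reverse complements after masliner normalisation.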

In order of falling “PBM E-score” value:
1. ATAATACA  0.282
2. CAAGGGAC  0.261
3. TCACTACA  0.24
4. CTTAGCGC  0.201
5. ATTTCTGC  0.189
6. CAACTAGC  0.188
7. CCCGCATA  0.168
8. CGAACAAC  0.152
9. CCCTGCCG  0.145
10. CAGATAAC  0.144
11. AATTATTG  0.139
12. ATTCAGAG  0.132
13. ATAGGTAC  0.127
14. ACCCTTAG  0.123
15. CCGAACTA  0.118
16. CCTATTAA  0.109
17. AAACGTAA  0.0997
18. GTGAGAAA  0.0881
19. AACTTGGT  0.0862
20. CTCCTGAC  0.0802
21. GTGTCGTA  0.0777
22. GGTACGCA  0.0769
23. AAACAACC  0.0768
24. CCCGGACA  0.0765
25. GTGCCGTA  0.0726
26. AACTGGGG  0.0723
27. TCGGATCA  0.0657
28. ACACGCGA  0.0601
29. TAAGAGAA  0.0551
30. CAGTAAGG  0.0543
31. ACCTAGGG  0.0541
32. GCCGTACA  0.0541
33. TAACGTAA  0.0506
34. AGATGGTA  0.0502
35. TATTCAGA  0.0498
36. AGAACTTA  0.046
37. AAAGGATG  0.0449
38. AAAGACAC  0.0428
39. CGGACAGA  0.0387
40. TACCAATA  0.0341
41. CGTATCAG  0.0306
42. AAACGAAT  0.0286
43. AGTATTGG  0.0226
44. AAAGTCCG  0.021
45. AGAATCGA  0.0175
46. ATACTACC  0.0168
47. CTCTACTC  0.0129
48. AGTTACAT  0.0124
49. CTTTCGAA  0.00871
50. ACTCGTGG  0.00466
51. AGTCATAG  -0.00021
52. CGGGTCAC  -0.00145
53. TGAACACA  -0.00911
54. CTTTTAAC  -0.0106
55. AATTCCCA  -0.0117
56. CAGCCAAG  -0.0194
57. CGTCAGCC  -0.0208
58. GAGTTCAC  -0.0228
59. GTGCACGA  -0.0234
60. ATATCACA  -0.031
61. AAACTAGA  -0.0323
62. AGAACGAC  -0.0328
63. GATGAACC  -0.0336
64. ATGTAACG  -0.0338
65. GATGGCTA  -0.0352
66. CAGGTATG  -0.0355
67. CCACATAG  -0.0377
68. AATATGAC  -0.0422
69. AGTTCTAG  -0.0512
70. TAGATTCA  -0.0516
71. CCCGTTCG  -0.0552
72. CACGAGAC  -0.0565
73. AAAAAGCA  -0.0586
74. GATGGGCC  -0.0607
75. GTGCGTCA  -0.0637
76. AGACTGAA  -0.0653
77. CACGGGTA  -0.0681
78. AGAGAGGA  -0.0714
79. CTGCTAAA  -0.0803
80. GTCGGTCA  -0.0854
81. GGACCGCC  -0.0968
82. CGTGGCGC  -0.101
83. GCGGGACA  -0.104
84. ATCCAGCC  -0.106
85. AAACGGTT  -0.109
86. AAAGTCAC  -0.113
87. AGCGTCTG  -0.119
88. ACCGTTAG  -0.124
89. CCGCCAAC  -0.126
90. GTTAGAAA  -0.127
91. CGCTCGAC  -0.129
92. AGCCAATG  -0.13
93. CTTATGTA  -0.14
94. CTCTCAGA  -0.143
95. AGACCATG  -0.148
96. ATAGTCCG  -0.149
97. ACCTCCAT  -0.164
98. ACCGTGCT  -0.171
99. CCTTCTCG  -0.172
100. ATCGTTCC  -0.194
101. GTTAGAGA  -0.209
102. AAAGAGTT  -0.211
103. ACCGGTAA  -0.22
104. ACGCCTAG  -0.222
105. AGGCTAGC  -0.223
106. CCACGGGG  -0.232
107. CCCCCTAA  -0.257
108. GAGGAGGA  -0.265
109. CTTAAGCA  -0.273
